Source: patent US20200190204A1
These are yes or no findings as the source states them, for the method shown. Some entries that bind do so weakly or less than the wild type.

Chains of the proteins cited; added tags and fusions are not shown.
UniProt Q96RJ3: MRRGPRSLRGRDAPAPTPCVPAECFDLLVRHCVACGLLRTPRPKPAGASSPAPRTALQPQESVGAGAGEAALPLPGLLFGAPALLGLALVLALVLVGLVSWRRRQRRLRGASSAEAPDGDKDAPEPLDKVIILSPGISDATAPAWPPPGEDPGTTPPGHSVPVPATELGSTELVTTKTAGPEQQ

Legend:
[1] = biological target: human BAFF-R on human B-cell lines, primary lymphoma samples and normal B cells (human) (UniProt Q96RJ3); experiment: flow cytometry, Alexa Fluor-488-conjugated chimeric antibody, direct staining
[2] = biological target: human BAFF-R on human B-cell lines, primary lymphoma samples and normal B cells (human) (UniProt Q96RJ3); experiment: flow cytometry (FIG. 1D); also bound MCL, DLBCL and FL primary tumor samples
[3] = biological target: human BAFF-R on human B-cell lines, primary lymphoma samples and normal B cells (human) (UniProt Q96RJ3); experiment: flow cytometry of primary patient samples, Alexa Fluor-488-conjugated chimeric antibody (FITC-A)
[4] = biological target: human BAFF-R on human B-cell lines, primary lymphoma samples and normal B cells (human) (UniProt Q96RJ3); experiment: flow cytometry, directly labelled antibody; also NHL primary patient samples (FIG. 1E)
[5] = biological target: human BAFF-R on human B-cell lines, primary lymphoma samples and normal B cells (human) (UniProt Q96RJ3); experiment: flow cytometry (FIG. 8)
[6] = biological target: human BAFF-R on human B-cell lines, primary lymphoma samples and normal B cells (human) (UniProt Q96RJ3); experiment: flow cytometry of protein A purified mouse mAb
[7] = biological target: human BAFF-R on human B-cell lines, primary lymphoma samples and normal B cells (human) (UniProt Q96RJ3); experiment: flow cytometry of purified mouse mAb (1 µg/10^6 cells-1.6 ng/10^6 cells) on Mino cells
[8] = biological target: human BAFF-R on human B-cell lines, primary lymphoma samples and normal B cells (human) (UniProt Q96RJ3); experiment: flow cytometry on MCL, DLBCL and FL patient samples, anti-mouse IgG-APC
[9] = biological target: human BAFF-R on human B-cell lines, primary lymphoma samples and normal B cells (human) (UniProt Q96RJ3); experiment: flow cytometry, purified mouse mAb at 0.05 µg/10^6 cells, a(m)IgG-APC
[10] = biological target: human BAFF-R on human B-cell lines, primary lymphoma samples and normal B cells (human) (UniProt Q96RJ3); experiment: flow cytometry, mouse mAb at 0.05 ug/10^6 cells + Anti-(m)IgG-APC
[11] = biological target: human BAFF-R on human B-cell lines, primary lymphoma samples and normal B cells (human) (UniProt Q96RJ3); experiment: flow cytometry of mouse mAb Clones 55 and 90 (0.05 µg mAb/10^6 cells) on isolated B cells
[12] = biological target: human BAFF-R on human B-cell lines, primary lymphoma samples and normal B cells (human) (UniProt Q96RJ3); experiment: flow cytometry of primary patient samples, mouse mAb + anti-mouse IgG-APC; high 2 µg and low 0.05 µg per 10^6 cells by the legend
[13] = biological target: human BAFF-R on human B-cell lines, primary lymphoma samples and normal B cells (human) (UniProt Q96RJ3); experiment: flow cytometry (FIG. 10)
[14] = biological target: human BAFF-R on human B-cell lines, primary lymphoma samples and normal B cells (human) (UniProt Q96RJ3); experiment: flow cytometry, mouse mAb + Anti-(m)IgG-APC
[15] = biological target: human BAFF-R on human B-cell lines, primary lymphoma samples and normal B cells (human) (UniProt Q96RJ3); experiment: flow cytometry on JeKo-1, SU-DHL-6, Raji and RL, anti-mouse IgG-APC
[16] = biological target: human BAFF-R on human B-cell lines, primary lymphoma samples and normal B cells (human) (UniProt Q96RJ3); experiment: flow cytometry, 0.05 µg mAb/10^6 cells
[17] = biological target: human BAFF-R on human B-cell lines, primary lymphoma samples and normal B cells (human) (UniProt Q96RJ3); experiment: flow cytometry, hybridoma supernatant at 1/10, 1/50 and 1/200, anti-mouse IgG-APC
[18] = biological target: human BAFF-R on human B-cell lines, primary lymphoma samples and normal B cells (human) (UniProt Q96RJ3); experiment: flow cytometry on Mino cells, purified mouse mAb; sample names give 0.0016, 0.008, 0.04, 0.2 and 1 (µg/10^6 cells by the legend); anti-mouse IgG APC
[19] = biological target: human BAFF-R on human B-cell lines, primary lymphoma samples and normal B cells (human) (UniProt Q96RJ3); experiment: flow cytometry of supernatants (1/10, 1/50, 1/200) on Mino cells, anti-mouse IgG-APC

Measured: binding

B1: chimeric anti-BAFF-R antibody C55 (antibody, V domains shown)
VH: QVTLKESGPGILKPSQTLSLTCSFSGFSLSTSGMGVGWIRQPSGKGLEWLAHIWWDDDKYYNSSLKSHLTISKDTSRNQVFLKITSVDTADTATYYCARSFGYGLDYWGQGTTLTVSS
VL: DIQMTQTTSSLSASLGDRVTISCSASQDISNYLNWYQQKPDGTVKLLIYYTSSLHSGVPSRFSGSGSGTDYSLTISSLEPEDIATYYCHQFSELPWTFGGGTKLEIKR
binds: [1] | [2] | [3] | [4]

B2: mouse mAb Clone 55 (hybridoma) (antibody, V domains shown)
VH: QVTLKESGPGILKPSQTLSLTCSFSGFSLSTSGMGVGWIRQPSGKGLEWLAHIWWDDDKYYNSSLKSHLTISKDTSRNQVFLKITSVDTADTATYYCARSFGYGLDYWGQGTTLTVSS
VL: DIQMTQTTSSLSASLGDRVTISCSASQDISNYLNWYQQKPDGTVKLLIYYTSSLHSGVPSRFSGSGSGTDYSLTISSLEPEDIATYYCHQFSELPWTFGGGTKLEIKR
not listed: [1] | [2] | [3] | [4]
binds: all other assays above
